Test results reported in US20170044236A1.
Results are given in words; binding and its absence hold for the method and conditions named. A result given as binding can be weak or reduced; the word gives no strength. Blank lines part the entries; values can stand above or below the binder they belong to.

Sequences of proteins named here, by UniProt entry; tags and fusion partners are left off. A change or cut given only in a name is not applied to a line headed by its entry.
UniProt P08514: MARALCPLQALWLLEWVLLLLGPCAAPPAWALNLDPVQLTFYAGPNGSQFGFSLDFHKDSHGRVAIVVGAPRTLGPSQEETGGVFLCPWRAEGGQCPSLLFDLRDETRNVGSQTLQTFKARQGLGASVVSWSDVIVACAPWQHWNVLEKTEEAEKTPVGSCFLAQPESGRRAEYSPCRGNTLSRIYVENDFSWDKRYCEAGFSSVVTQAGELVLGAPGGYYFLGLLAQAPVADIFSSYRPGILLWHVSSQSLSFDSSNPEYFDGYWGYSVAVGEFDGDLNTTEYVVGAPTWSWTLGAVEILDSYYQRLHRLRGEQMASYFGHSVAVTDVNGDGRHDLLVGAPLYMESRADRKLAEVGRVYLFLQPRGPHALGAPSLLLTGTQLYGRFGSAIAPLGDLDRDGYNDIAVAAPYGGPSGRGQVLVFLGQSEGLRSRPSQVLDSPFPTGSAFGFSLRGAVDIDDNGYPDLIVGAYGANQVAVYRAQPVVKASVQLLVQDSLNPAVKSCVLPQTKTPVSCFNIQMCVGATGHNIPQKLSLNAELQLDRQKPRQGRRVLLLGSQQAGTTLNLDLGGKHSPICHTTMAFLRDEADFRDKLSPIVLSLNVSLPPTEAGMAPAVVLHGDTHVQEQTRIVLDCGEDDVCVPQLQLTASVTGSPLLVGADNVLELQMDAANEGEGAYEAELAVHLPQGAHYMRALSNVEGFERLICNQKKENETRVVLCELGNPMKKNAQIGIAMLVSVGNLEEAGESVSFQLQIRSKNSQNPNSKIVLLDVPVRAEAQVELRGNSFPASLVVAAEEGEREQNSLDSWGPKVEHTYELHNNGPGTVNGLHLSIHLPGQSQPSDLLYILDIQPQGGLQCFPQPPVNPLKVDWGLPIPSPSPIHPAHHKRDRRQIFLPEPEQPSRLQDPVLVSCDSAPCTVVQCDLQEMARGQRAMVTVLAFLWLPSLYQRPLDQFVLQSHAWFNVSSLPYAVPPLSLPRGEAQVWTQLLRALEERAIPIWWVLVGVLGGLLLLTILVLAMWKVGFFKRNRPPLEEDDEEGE

What was measured:
[1] = target: preactivated cellular αIIbβ3 (αIIbβ3^N/S) (UniProt P08514); assay: flow cytometry, fluorescein-tagged ligand on cells
[2] = target: human αVβ3 ectodomain (human); assay: X-ray crystal structure, peptide soaked into αVβ3 ectodomain crystals

binding [1]: binds
B1: hFN10-G (designed binder)
chain: SDVPRDLEVVAATPTSLLISWDAPAVTVRYYRITYGETGGNSPVQEFTVPGSKSTATISGLKPGVDYTITVYAVTPGRGDWNEGSKPISINY

binding [2]: binds
B2: chemically synthesized knottin 2.5F (peptide)
peptide: GCPRPRGDNPPLTCSQDSDCLAGCVCGPNGFCG
